The list shows a part of the results.
target: OsWRKY34 (Oryza sativa, UniProt Q0JBA9 1-250); experiment: protein-binding microarray (RPBM); PBS, 2% BSA, 51.3 ng/ul salmon testes DNA, 50 uM zinc acetate, 200 nM TF, 25 C, 1 h; high values mean tight binding; settings: protein: recombinant; tags: N-terminal polyhistidine and DsRed monomer fusion (pET32a); label: CyDye5-dUTP incorporated in the synthesized complementary strand; 3' TTTTT single-stranded linker to array surface; dsDNA, one strand shown
Summary of the method: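 The binding signal is fluorescence intensity per feature, in arbitrary units, read on an Axon 4000B scanner. Polyhistidine- and DsRed-tagged transcription factors (N-terminal fusions) from E. coli BL21-CodonPlus were purified on Ni–NTA and applied at 200 nM for 1 h at 25 °C to a double-stranded, BSA-blocked custom Agilent array in buffer with 50 µM zinc acetate.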

Amino acid sequences for entries named in this document (tags omitted).
UniProt Q0JBA9, entry or part of it: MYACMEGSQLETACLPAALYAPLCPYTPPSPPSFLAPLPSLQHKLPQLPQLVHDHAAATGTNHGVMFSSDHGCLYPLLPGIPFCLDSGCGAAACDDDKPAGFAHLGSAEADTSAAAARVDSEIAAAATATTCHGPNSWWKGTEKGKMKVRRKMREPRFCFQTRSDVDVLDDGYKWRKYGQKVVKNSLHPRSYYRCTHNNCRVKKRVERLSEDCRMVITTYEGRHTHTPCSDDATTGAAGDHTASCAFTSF

Row | Sequence | binding signal
1 | AACTACATATTCGGTAATTTATCCCTTACTTTTTTTCACACGGAGTCACCTAGTGCAG | 10900 fluorescence intensity (a.u.)
2 | CCTACGATCTTCAGTTGTGGTGGTTTTTGGCCTTTTGCATCGGAGTCACCTAGTGCAG | 11100 fluorescence intensity (a.u.)
3 | CTCCACATGCCAATTAATTCTCTTATTTTTTTCTCATACTCGGAGTCACCTAGTGCAG | 9490 fluorescence intensity (a.u.)
4 | AGTAGTAGTTTTTCTTCCGGTTTCGATGTGTTAAACAAAACGGAGTCACCTAGTGCAG | 11300 fluorescence intensity (a.u.)
5 | CATCATCACCTCCATCATCATGCTTTGCTTGCTTGCTCTACGGAGTCACCTAGTGCAG | 8840 fluorescence intensity (a.u.)
6 | CCGCTTCTTCGTATGTGCCTGTAATATTTATTAATTTATTCGGAGTCACCTAGTGCAG | 12500 fluorescence intensity (a.u.)
7 | GGGGTAGGGTTTGTTCGTTTCGAGGTATGATTCTCAGCGCCGGAGTCACCTAGTGCAG | 10100 fluorescence intensity (a.u.)
8 | AGCGACCAAACTGCTGTTCCACGCCGCTAGTTCTTTTCTCCGGAGTCACCTAGTGCAG | 8970 fluorescence intensity (a.u.)
9 | TCCTATCCCTACGAGCACTTCCGAAATATTGGACTGACATCGGAGTCACCTAGTGCAG | 8370 fluorescence intensity (a.u.)
10 | CTTACAGGCCAAATCATCACACATGATCTCATCCGTCCATCGGAGTCACCTAGTGCAG | 8570 fluorescence intensity (a.u.)
11 | GACACTGTTGATCTCCAAATGAATTCTTTTTCTGGCATAACGGAGTCACCTAGTGCAG | 8130 fluorescence intensity (a.u.)
12 | CACTTCAAGATTTTTTCCCTCACTCGGCTCGGCTTAGCCCCGGAGTCACCTAGTGCAG | 10200 fluorescence intensity (a.u.)
13 | TATGCCCAGTTGATATCCATTATATTATATATGGCCTTATCGGAGTCACCTAGTGCAG | 8210 fluorescence intensity (a.u.)
14 | GTTCTGGGCTGTTTAGTTGGAAAAAAATTTTGCTCCTGTACGGAGTCACCTAGTGCAG | 8490 fluorescence intensity (a.u.)
15 | TCTTTATATTATTACTGTTGACCTCGATCCTAGGACGACGCGGAGTCACCTAGTGCAG | 8360 fluorescence intensity (a.u.)
16 | TTGTTCTTTTTCCTATATATTGTTGTTCCTTTTCATGCTTCGGAGTCACCTAGTGCAG | 9230 fluorescence intensity (a.u.)
17 | TGGCGTTCTGCTGTACAGGCTCATGTATTACTGCATTTCACGGAGTCACCTAGTGCAG | 9850 fluorescence intensity (a.u.)
18 | TATTACAATCACTTCTGTTATTATATTCAGTCTTCTATTTCGGAGTCACCTAGTGCAG | 9110 fluorescence intensity (a.u.)
19 | TGCAGTCGTCGTCCACCTCCGCCGCCTCTTCGCCACCATCCGGAGTCACCTAGTGCAG | 9850 fluorescence intensity (a.u.)
20 | GATTCTTTGCCTGTTCAATCGACCGTGCTTTGTGAGAGCACGGAGTCACCTAGTGCAG | 9370 fluorescence intensity (a.u.)
21 | TACTCGTTTGGTTGTAATTTTTTTCCGCGTCTTTTCATCTCGGAGTCACCTAGTGCAG | 11200 fluorescence intensity (a.u.)
22 | GTGTGTCTGGTCTCTCCTGGTGTTGGTTGCCACACGTATACGGAGTCACCTAGTGCAG | 8360 fluorescence intensity (a.u.)
23 | CTACTAGTACAGGCTATATCGCTTACTCCCTTTGTCCTAACGGAGTCACCTAGTGCAG | 8420 fluorescence intensity (a.u.)
24 | ACGGGACGGATGATGGGGTTGGCTGGTGAAAACGGATGGACGGAGTCACCTAGTGCAG | 9610 fluorescence intensity (a.u.)
25 | GCCCAGCCCACCCACCGACAGCCGCTTCGCCATTTCCGCTCGGAGTCACCTAGTGCAG | 8260 fluorescence intensity (a.u.)
26 | TACTTTTCATCACTGGTCATACACTAAAACCATCATTAAACGGAGTCACCTAGTGCAG | 8440 fluorescence intensity (a.u.)
27 | AGCTGATTATTGCTTGATACCTAAGCTTTGCTTGCTTTCACGGAGTCACCTAGTGCAG | 8580 fluorescence intensity (a.u.)

Part of the list above, in markdown.

| Row | Sequence | binding signal |
| --- | --- | --- |
| 3 | CTCCACATGCCAATTAATTCTCTTATTTTTTTCTCATACTCGGAGTCACCTAGTGCAG | 9490 fluorescence intensity (a.u.) |
| 4 | AGTAGTAGTTTTTCTTCCGGTTTCGATGTGTTAAACAAAACGGAGTCACCTAGTGCAG | 11300 fluorescence intensity (a.u.) |
| 5 | CATCATCACCTCCATCATCATGCTTTGCTTGCTTGCTCTACGGAGTCACCTAGTGCAG | 8840 fluorescence intensity (a.u.) |
| 6 | CCGCTTCTTCGTATGTGCCTGTAATATTTATTAATTTATTCGGAGTCACCTAGTGCAG | 12500 fluorescence intensity (a.u.) |
| 7 | GGGGTAGGGTTTGTTCGTTTCGAGGTATGATTCTCAGCGCCGGAGTCACCTAGTGCAG | 10100 fluorescence intensity (a.u.) |
| 8 | AGCGACCAAACTGCTGTTCCACGCCGCTAGTTCTTTTCTCCGGAGTCACCTAGTGCAG | 8970 fluorescence intensity (a.u.) |
| 9 | TCCTATCCCTACGAGCACTTCCGAAATATTGGACTGACATCGGAGTCACCTAGTGCAG | 8370 fluorescence intensity (a.u.) |
| 10 | CTTACAGGCCAAATCATCACACATGATCTCATCCGTCCATCGGAGTCACCTAGTGCAG | 8570 fluorescence intensity (a.u.) |
| 11 | GACACTGTTGATCTCCAAATGAATTCTTTTTCTGGCATAACGGAGTCACCTAGTGCAG | 8130 fluorescence intensity (a.u.) |
| 12 | CACTTCAAGATTTTTTCCCTCACTCGGCTCGGCTTAGCCCCGGAGTCACCTAGTGCAG | 10200 fluorescence intensity (a.u.) |
| 13 | TATGCCCAGTTGATATCCATTATATTATATATGGCCTTATCGGAGTCACCTAGTGCAG | 8210 fluorescence intensity (a.u.) |
| 14 | GTTCTGGGCTGTTTAGTTGGAAAAAAATTTTGCTCCTGTACGGAGTCACCTAGTGCAG | 8490 fluorescence intensity (a.u.) |
| 15 | TCTTTATATTATTACTGTTGACCTCGATCCTAGGACGACGCGGAGTCACCTAGTGCAG | 8360 fluorescence intensity (a.u.) |
| 16 | TTGTTCTTTTTCCTATATATTGTTGTTCCTTTTCATGCTTCGGAGTCACCTAGTGCAG | 9230 fluorescence intensity (a.u.) |
| 17 | TGGCGTTCTGCTGTACAGGCTCATGTATTACTGCATTTCACGGAGTCACCTAGTGCAG | 9850 fluorescence intensity (a.u.) |

Next part.

Row | Sequence | binding signal
28 | GCGCTTCTGACCACCACGTGCATTTCCATTTCCCGCTGCACGGAGTCACCTAGTGCAG | 12700 fluorescence intensity (a.u.)
29 | TAGTACTCCACTTGCCCCAGTAGTAACTGCCTGGAAACTTCGGAGTCACCTAGTGCAG | 8590 fluorescence intensity (a.u.)
30 | GCTCGCTGCTTCGCTTGCTCGCGGGCCTCGCGGCCACATCCGGAGTCACCTAGTGCAG | 9100 fluorescence intensity (a.u.)
31 | ATTGTCATACGATCATCACCACTTTGCCAATTTGCCAGCTCGGAGTCACCTAGTGCAG | 9180 fluorescence intensity (a.u.)
32 | CCGCCGATCTCCATCTCCGCCGCCGTCCTGCTGCTTCCGCCGGAGTCACCTAGTGCAG | 8460 fluorescence intensity (a.u.)
33 | TCCTCCACCGTCCGCCGCTCACTCACTCAGGGCCTCAGGCCGGAGTCACCTAGTGCAG | 9350 fluorescence intensity (a.u.)
34 | GCTAATTATTCTTTCAGTTATAGGCATCGTACCCGTCGACCGGAGTCACCTAGTGCAG | 10700 fluorescence intensity (a.u.)
35 | CTTCACTATGTTTCAGAGATACCATTTCACCCAGTCCAATCGGAGTCACCTAGTGCAG | 8030 fluorescence intensity (a.u.)
36 | GGCAGCTCGATCTTTAGTCCCGGTTATTTCATCCGGGACTCGGAGTCACCTAGTGCAG | 8660 fluorescence intensity (a.u.)
37 | GCTCATTACCTCGTTTACGAATTCTTCCCCATTTCCTTTGCGGAGTCACCTAGTGCAG | 10000 fluorescence intensity (a.u.)
38 | TTCTAAATAATATTTGACGCCGTTGACTTTTTTAAATATACGGAGTCACCTAGTGCAG | 14600 fluorescence intensity (a.u.)
39 | ACTCTACATTTAATTTTTATAGGCTTTTTTTATAATTATTCGGAGTCACCTAGTGCAG | 8070 fluorescence intensity (a.u.)
40 | TCGATCTCACTGTGGGTGGGCACTGTAGCTAGTGGTCTTGCGGAGTCACCTAGTGCAG | 9460 fluorescence intensity (a.u.)
41 | CAGTGGATGGGCTTTCTTCGTTTCTGCAATGAGGTCATGTCGGAGTCACCTAGTGCAG | 9920 fluorescence intensity (a.u.)
42 | GTCCCGGGCACCGACCACGATCCGTTCCCGCCACACAAACCGGAGTCACCTAGTGCAG | 8080 fluorescence intensity (a.u.)
43 | TGTGCTAAAAAGTCAACGGTGTCAAACATTTTGAAACGGACGGAGTCACCTAGTGCAG | 10600 fluorescence intensity (a.u.)
44 | GTTCCAGATGTCCTGCCCCTTGATCTCCTCCGGCGTCGGCCGGAGTCACCTAGTGCAG | 9510 fluorescence intensity (a.u.)
45 | ACTAGTTTGTTCCAACGTACTCCCGCTTCCATCTAATCGCCGGAGTCACCTAGTGCAG | 9340 fluorescence intensity (a.u.)
46 | TGTAGGGTGCGGTCGTTTTGAGCTTATAGGATTAGATTCTCGGAGTCACCTAGTGCAG | 10200 fluorescence intensity (a.u.)
47 | TCCCACCCGCTGCCACCAAAACCCTCCCCGCGCCCGGTCCCGGAGTCACCTAGTGCAG | 10500 fluorescence intensity (a.u.)
48 | GCATGCTCTGGCCGCTGCTCGTCTCGCTCAGCCAGCCGCTCGGAGTCACCTAGTGCAG | 8180 fluorescence intensity (a.u.)
49 | TAAGTGATCTGTGCGTTGCAATATATACCGATTATACCATCGGAGTCACCTAGTGCAG | 9080 fluorescence intensity (a.u.)
50 | CTTCATCTGAATTTTGTCTCTTGGACTCTTTTCTCCATCTCGGAGTCACCTAGTGCAG | 9960 fluorescence intensity (a.u.)
51 | ATGTGTGAGTGCAACTTCCCTCCTTTTTTTTCAGTATCTTCGGAGTCACCTAGTGCAG | 10500 fluorescence intensity (a.u.)
52 | GCTTGCTTTGTCACATGCAGTTTTACACCTTTTATTTCTCCGGAGTCACCTAGTGCAG | 10400 fluorescence intensity (a.u.)
53 | ATGCTCTACTAACTCGTTGACCGATTACTATGAATGAACTCGGAGTCACCTAGTGCAG | 10900 fluorescence intensity (a.u.)
54 | GTGCCATGCCATACTTTACCTATCATGTTTGCTGTCTGATCGGAGTCACCTAGTGCAG | 8180 fluorescence intensity (a.u.)
